Record: PubChem BioAssay AID1259300 (Sanger Institute, 2017)

Test: 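siRNA screen of kinases and common colorectal cancer mutant genes, alone or with drugs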 (primary screen)
Cell system: HCT15 colorectal cancer cells
Knock-down reagent: siRNA pool against human genes
Conditions: anchor drug or DMSO vehicle added 24 h after seeding: BYL719 1 µM, cetuximab 5 µg/ml, trametinib 10 nM; drug doses chosen to barely affect viability alone
Measured: 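Cell viability after knock-down, as fraction of non-targeting pool wells averaged over replicates, plus robust z-score for knock-down alone; synergy score per drug (BYL719 1 µM, cetuximab 5 µg/ml, trametinib 10 nM)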
Reading the numbers: viability z-score, siRNA alone: higher = more viable cells after knock-down
Call rule: 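a knock-down without drug that drives the robust viability z-score under -3 is active, i.e. essential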
Calls: active = essential: knock-down alone lowers viability (z below -3); inactive = no strong viability loss with knock-down alone
The whole screen tested 794 reagents; this is an unselected part. Of all reagents, 18 (2.3%) are marked active. 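Calls rest on knock-down alone, not drug synergy; depositor treated synergy scores above 0.15 as synergistic; drug doses alone had little viability effect.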 A number with no mark means an inactive call. The numbers tell different reagents against one gene apart. Further read-outs or replicates are left out here. Not stated in the record: the amount of reagent, the time to read-out.

PRPS1 (phosphoribosyl pyrophosphate synthetase 1) — viability z-score, siRNA alone: 0.625
GRK7 (G protein-coupled receptor kinase 7) — viability z-score, siRNA alone: -0.0685
TESK1 (testis associated actin remodelling kinase 1) — viability z-score, siRNA alone: 0.0536
YES1 (YES proto-oncogene 1, Src family tyrosine kinase) — viability z-score, siRNA alone: 0.625
ROS1 (ROS proto-oncogene 1, receptor tyrosine kinase) — viability z-score, siRNA alone: 0.47
FES (FES proto-oncogene, tyrosine kinase) — viability z-score, siRNA alone: 0.625
SRGAP3 (SLIT-ROBO Rho GTPase activating protein 3) — viability z-score, siRNA alone: 0.625
NEK11 (NIMA related kinase 11) — viability z-score, siRNA alone: -1.13
ATRX (ATRX chromatin remodeler) — viability z-score, siRNA alone: 0.625
MELK (maternal embryonic leucine zipper kinase) — viability z-score, siRNA alone: 0.625
RPS6KA4 (ribosomal protein S6 kinase A4) — viability z-score, siRNA alone: 0.622
PRKAA1 (protein kinase AMP-activated catalytic subunit alpha 1) — viability z-score, siRNA alone: 0.625
CDKN2B (cyclin dependent kinase inhibitor 2B) — viability z-score, siRNA alone: 0.625
MARK4 (microtubule affinity regulating kinase 4) — viability z-score, siRNA alone: 0.625
CALM2 (calmodulin 2) — viability z-score, siRNA alone: 0.625
STK39 (serine/threonine kinase 39) — viability z-score, siRNA alone: 0.625
DCK (deoxycytidine kinase) — viability z-score, siRNA alone: -1.32
WT1 (WT1 transcription factor) — viability z-score, siRNA alone: 0.625
PTK2B (protein tyrosine kinase 2 beta) — viability z-score, siRNA alone: -0.159
GK2 (glycerol kinase 2) — viability z-score, siRNA alone: -0.859
ILK (integrin linked kinase) #1 — viability z-score, siRNA alone: 0.625
ILK (integrin linked kinase) #2 — viability z-score, siRNA alone: 0.625
PRKY (protein kinase Y-linked (pseudogene)) — viability z-score, siRNA alone: 0.625
CHUK — viability z-score, siRNA alone: 0.625
SIK3 (SIK family kinase 3) — viability z-score, siRNA alone: 0.625
TESK2 (testis associated actin remodelling kinase 2) — viability z-score, siRNA alone: 0.625
SOS2 (SOS Ras/Rho guanine nucleotide exchange factor 2) — viability z-score, siRNA alone: 0.439
TSSK6 (testis specific serine kinase 6) — viability z-score, siRNA alone: 0.466

4 of these entries, reformatted.
ILK (integrin linked kinase) #2
- viability z-score, siRNA alone: 0.625

PRKY (protein kinase Y-linked (pseudogene))
- viability z-score, siRNA alone: 0.625

CHUK
- viability z-score, siRNA alone: 0.625

SIK3 (SIK family kinase 3)
- viability z-score, siRNA alone: 0.625
